Measurements: PubChem BioAssay AID1347426 (Functional Genomics Laboratory (NCATS/FGL), 2020)
Among all 31,000 sequences or so, about 1,400 (4.5%) were called active.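 The calls were made as follows: active = median seed-adjusted z-score above 1 or below -1; inactive = the rest.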 The list shows a part of the results.

Experiment: Novel Modifiers of Survival Motor Neuron (SMN) Protein: Gene Identification via Genome-wide siRNA Screen;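 also: luminescence tracks full-length SMN protein made from the SMN2 reporter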
Settings: HEK293T SMN2-luciferase reporter, siRNA knockdown, 72 h; actives lie on both sides
Outline: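 Luciferase signal, proportional to full-length SMN made from an SMN2 cDNA reporter in stable HEK293T cells, was read 72 h after siRNA reverse transfection. Values were expressed as MAD scores after non-targeting-control normalization and log10 conversion; seed analysis flagged off-targets.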

| Sequence | median seed-adjusted z-score |
| --- | --- |
| GGUCCAAAAUGUACUUAGATT against RGS8 | inactive: 0.739 |
| CGACCAUCAUGGAAAACAUTT against ABCB8 | inactive: -0.558 |
| CAUUGGAAAGUGCGAGUUATT against HUWE1 | inactive: 0.734 |
| CCAUUAGAAGAUACGCAGATT against DIS3 | inactive: 0.266 |
| GGCAGAAGUUGGUUGACAATT against DALRD3 | inactive: 0.338 |
| GGACCAGAGAGACUUCAUUTT against ASTL | inactive: 0.722 |
| CAAAGAGACUGUGAGGAAATT against MAN2C1 | inactive: -0.489 |
| GGUUUAUACAACAACCAGATT against NOD1 | inactive: 0.092 |
| CAUGGUCCAUUAUUCGUGATT against ATP6V1A | inactive: -0.0106 |
| CACUAUAUGCUAUCCAGAATT against GNAI1 | inactive: -0.233 |
| CCAGAAUGGUUCAAUGUAUTT against PCBD2 | inactive: -0.0549 |
| CCUGAAAUUCGGAUAGUGATT against DLX2 | inactive: -0.527 |
| GCCUUCUCCUCUCAUAACATT against ZNF683 | inactive: -0.452 |
| AAGCAGUGCUGAUCCUUCATT against LAMB3 | inactive: -0.0106 |
| GAUAGAUCGUUUUAAGAGATT against MST4 | inactive: 0.343 |
| GCACAGAGUUUAAUGAGCATT against VSNL1 | inactive: 0.0569 |
| GAACCAUACUCGCAAUACATT against NR1H4 | inactive: -0.056 |
| CGUAGAGUCCGCCAAGAAATT against LBX1 | inactive: -0.36 |
| GGAAUGAUCUGACUAACUUTT against PECI | inactive: -0.0254 |
| GAUUUAUCCCUGUACUUGATT against ERAP1 | inactive: -0.0666 |
| GCAUCUGAAUUUGGAUUAATT against CTH | inactive: 0.629 |
| CAUUCGAAGAUAUAUGGUATT against ZNF491 | inactive: 0.0642 |

A run of entries from further up, as a working copy:

| Sequence | median seed-adjusted z-score |
| --- | --- |
| GAUAGAUCGUUUUAAGAGATT against MST4 | inactive: 0.343 |
| GCACAGAGUUUAAUGAGCATT against VSNL1 | inactive: 0.0569 |
| GAACCAUACUCGCAAUACATT against NR1H4 | inactive: -0.056 |

Next results:

| Sequence | median seed-adjusted z-score |
| --- | --- |
| GCAUUCUAUAGAUUGACAATT against MGST1 | inactive: -0.0144 |
| GGUACAGCCUCAAAGCGUATT against ABCG4 | inactive: -0.439 |
| GCAAGAAACUCCACCCUUUTT against RGS3 | inactive: 0.065 |
| UGAUCAAAGAGACAAUGGATT against DNAL4 | inactive: 0 |
| CUCCUACGUUUGAAAAACATT against ACPL2 | inactive: 0.0392 |
| GAGGCAUCACAGACACUAATT against B3GNT5 | inactive: -0.452 |
| GCAUCACCCAACAAGUACATT against PZP | inactive: -0.878 |
| CACUUUCAACGGGCAAAGATT against NMI | inactive: 0.982 |
| AGAUGUACAACGACCCAAATT against AGBL4 | inactive: 0.487 |
| CGGGAGCAGUUCUAUAAGATT against UBE2G2 | inactive: -0.043 |
| GACCCAACCAAAACCCGAATT against KRT12 | inactive: -0.0457 |
| GCAGAUCCAUCAACUACGATT against UBR4 | inactive: 0.602 |
| GGAAGUAGCUAGUAAAGCATT against USP38 | inactive: 0.216 |
| GCAGUGGACGGCAAACUUATT against HOXC8 | inactive: -0.0285 |
| GUUACGACCUGGAAGAUUATT against SPATA5L1 | inactive: 0.252 |
| GUCUACCCAUGGAUGAAAATT against HOXC4 | inactive: -0.0114 |
| CAGACGAAAUUUUGGGAUUTT against FUT11 | inactive: -0.15 |
| CUAUCACCGGAUUAACGAATT against ACOX1 | inactive: -0.897 |
| GCACUCGAGUAAUUAGCAATT against DOCK10 | inactive: -0.201 |
| CCUAGGUUCUGCAACUACATT against ZFP106 | inactive: 0.286 |
| GAAAGUGCUCGGUGCCUUUTT against HBB | inactive: -0.151 |
| GCGGGAGAAGCUUACCUUUTT against DPP3 | inactive: -0.261 |

| Sequence | median seed-adjusted z-score |
| --- | --- |
| GGGACAGUGGAGACGAAAATT against PALLD | inactive: -0.307 |
| GGAUGUCUGUUAUGACACUTT against PLA2G12B | inactive: -0.162 |
| CAGUUUACCUUCAAUCAGATT against NLRP11 | inactive: 0.181 |
| GCUAUGGACUAUUCGAAUATT against IFIT3 | inactive: -0.437 |
| GCUUGUCUUUCAACCCGAUTT against PARP4 | inactive: -0.226 |
| CCUGGGAUUUGGUUCGUUUTT against SCTR | inactive: -0.352 |
| GCCGAUCAAAGUACUCAGATT against RNF133 | inactive: 0 |
| GUAAGUCCAUAUCAAGACATT against SKIL | inactive: -0.868 |
| CAAAAUCGAGUGAUCUAUATT against ESCO2 | inactive: 0 |
| GCAUCUUGGUGAAACGUGATT against EIF4A3 | inactive: 0.126 |
| GCAGGAACCACAUUAUGGATT against RBX1 | inactive: -0.000499 |
| AGCUCCAUAUAACAAGGCATT against PLA2G1B | inactive: -0.411 |
| CAUCCAACAUAGAAGAGUUTT against CACNA1I | inactive: 0.346 |
| GGGAUGGGUUCGUACCUUUTT against CLDN6 | inactive: -0.281 |
| CGGUGACCGUUCAACCAUATT against ZNF391 | inactive: 0.056 |
| UCAUGAACAUUGUCAAUGATT against ADAMTS2 | inactive: -0.338 |
| UCCUCUAACUCACUGCCUATT against WISP2 | inactive: -0.0731 |
| CCAGAAUGCAGGGAAGUAATT against APOH | inactive: 0.0283 |
| CCACGAAAGUAGCAAUCAATT against YES1 | inactive: -0.508 |
| CAUCCUUCCUGCUAUCCUATT against SLC2A3 | inactive: -0.277 |
| CCACAUUGCUGUACGCACATT against DALRD3 | inactive: 0.338 |
| AGAAAUUCAUCUCAGAUAUTT against TAF10 | inactive: -0.587 |

Another view of part of the listing above.
Sequence | median seed-adjusted z-score
GGGACAGUGGAGACGAAAATT against PALLD | inactive: -0.307
CCACGAAAGUAGCAAUCAATT against YES1 | inactive: -0.508

Later entries

| Sequence | median seed-adjusted z-score |
| --- | --- |
| GCUGUGGACUCCAAACAGATT against DAB2IP | inactive: 0.505 |
| ACGGCAAACUCAUCACUAUTT against ACTL7B | inactive: 0.572 |
| GUCUGUUCGUGGGCCGAAATT against STUB1 | inactive: 0.202 |
| GCACCUGAAUGACACGCAATT against HOXD1 | inactive: 0.144 |
| GAAACUAGGCCUAACUGAATT against CASQ1 | inactive: -0.0307 |
| GAGUGAUACUCAUAUCUCUTT against VN1R1 | inactive: 0.531 |
| GCCUGGACUUCUUCGAGAATT against CSNK1G2 | inactive: 0.511 |
| GCUCUAAACCAGAACGGGATT against ARAP3 | inactive: -0.00876 |
| CAUUGGUGGUAUGACAAGATT against SPINLW1 | inactive: 0.00582 |
| GCACAAGCAUUGGAAAUAATT against MAP4 | active: 1.67 |
| GUACAGUCACAAGGACAUATT against FASTK | inactive: 0.306 |
| GCACCUACCUAGGCUUGGATT against FUK | inactive: -0.0381 |
| CAGCUCAACUCAAACGGUUTT against PCDHGA4 | inactive: 0.0698 |
| CAUGGACGAGAUCAAGGAATT against AGXT | inactive: 0.017 |
| GCAGUAACGAGGAACUGAATT against GALNTL4 | inactive: 0 |
| CAACAAUAGGCAAAAAGAUTT against SELE | inactive: 0.469 |
| GUCUAAUGAGAACUCCAGATT against IRF7 | inactive: -0.304 |
| CACUCAUCGAUGUACAUUUTT against TNNT1 | inactive: 0 |
| GCACGUAAGCUGAACACUATT against PRC1 | inactive: -0.0195 |
| CGCUGGACUUCGUCAAGAATT against KCNC4 | inactive: -0.433 |
| GCACCACUCAAGACCAAAUTT against ARX | inactive: 0.756 |
| GAGCAGACAUUGGAAUGGATT against MTHFD1 | inactive: 0.554 |

| Sequence | median seed-adjusted z-score |
| --- | --- |
| AACUCAACAUGUACGGUUUTT against HSF4 | inactive: 0.926 |
| GCAACGUGGACAUUGGUGATT against SOX10 | inactive: -0.255 |
| GACAGAAGUUUUGAGUGAATT against RICH2 | inactive: 0.4 |
| GGAGUUCACUACUGGAUUUTT against EFCAB4B | inactive: 0 |
| CGACUUCAUAAUUACGCAATT against ALS2 | inactive: 0 |
| GAAAGAUUCCGAACAAUCATT against RAB8B | inactive: -0.259 |
| GAAUGGAGAGAGAAUUGAATT against B2M | inactive: -0.367 |
| CAGCUGGACGGGAAAGUGATT against GZMM | inactive: -0.17 |
| CAGACAAGCUGAUCCGCAUTT against TGM5 | inactive: 0.0181 |
| CACCCACGAUGAGCACUGUTT against PHF21B | inactive: 0.327 |
| CAUGAUCGAUUUGAUUAUATT against CYP2C18 | inactive: 0.229 |
| GGCCUUCCAUCAUAGUUCATT against ZNF311 | inactive: 0.196 |
| GGAUGACUUUUCUCGUCUATT against SAP30BP | inactive: -0.257 |
| GGAGCAGAUUAAGCGAGUATT against NRAS | inactive: -0.581 |
| GAGCAGGGCUAAAUAAAGATT against AANAT | inactive: -0.168 |
| CUCCUGAUGUUGGAUAUAATT against PITRM1 | inactive: -0.0959 |
| GGCGGAAAUUCGUACAGAUTT against MGAT5 | inactive: 0.16 |
| GGAUGAUGAGUACUCUGAATT against COL7A1 | active: 1.08 |
| GGACUUAAACUGCUUACAATT against SSRP1 | inactive: -0.31 |
